Measurements published in PubChem BioAssay AID493014 (National Center for Advancing Translational Sciences (NCATS), 2011).
Among all 340,000 compounds or so, about 170 (0.05%) were called active. The inconclusive results got no clear call from the source; some entries with a clear call stand among them for comparison. Calls come from the whole dose curve; as a rule, active = well fitted inhibition curve with a large enough effect in the signal ratio, with a control signal flat (not every such curve was filed as active); inconclusive = small, poorly fitted or top-dose-only effect, or effect the other way, or a change in a side signal; inactive = flat fitted curve, though single readings scatter; the % refers to the signal ratio. A potency beside an inconclusive call is a rough fit, not a confirmed value.

Assay: qHTS Assay to Find Inhibitors of Chronic Active B-Cell Receptor Signaling;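 for activity change, negative = inhibition: plate controls were basal doxycycline-induced cells for no effect and cells given 10 µM MG132 for full effect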
Conditions: ABC-DLBCL IkBa-CBG/CBR reporter, luminescence ratio (green luciferase fused to IkBa over red control in TMD8 lymphoma cells), 4 h; activity change, negative = inhibition: at 46.1 µM (top of the series)
Summary of the method: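 Doxycycline induced both beetle luciferases in TMD8 lymphoma cells; IKK-driven degradation limits the IkappaBalpha-fused green signal, while red luminescence normalises for cell number and nonspecific effects. Compounds tested up to 46 uM, 4 hrs.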
Potency is the fitted concentration of half-maximal effect.

Row | Compound | activity change, negative = inhibition | Potency
1 | CC(=O)c1ccc(Oc2ncnc(N)c2[N+](=O)[O-])cc1 | inconclusive: -1.24% | 
2 | CCN(CC)S(=O)(=O)c1ccc(N/N=C(\C)c2ccc(OC)cc2O)nc1 |  | inconclusive: 5.62 µM [falling, single point]
3 | O=C(Nc1nc2ccccc2s1)C1CC(=O)N(c2ccc(Br)cc2)C1 (stereo unspecified) | inconclusive: 21.1% | 
4 | Cc1cc(Cl)ccc1OCC(=O)NCC(c1cccs1)N1CCOCC1 (stereo unspecified) | inactive: 26.3% | 
5 | O=C1Nc2ccccc2/C1=C\c1cccn1-c1ccc(OC(F)(F)F)cc1 |  | inconclusive: 6.51 µM [rising, partial curve, poor fit]
6 | COc1ccccc1C(=O)NCC(=O)NC(C)CCc1ccccc1 (stereo unspecified) | inconclusive: 2.87% | 
7 | O=[N+]([O-])c1ccc(/C=N/Nc2ccccn2)cc1 | inconclusive: 8.22% | 
8 | O=C(O)c1cccc(NC(=O)c2ccc3c(c2)C(=O)N(CC2CCCO2)C3=O)c1 (stereo unspecified) |  | inconclusive: 9.2 µM [falling, partial curve, poor fit]
9 | Cc1ccnc(NC(=O)CCC2CCCCC2)c1 |  | inconclusive: 25.9 µM [falling, single point]
10 | CCOC(=O)C1CCN(C(=O)C2CC(=O)N(c3ccc(C)cc3)C2)CC1 (stereo unspecified) |  | inconclusive: 6.51 µM [falling, single point]
11 | COc1ccc(OC)c(NC(=O)CSc2nnc3ccc(-c4ccccn4)nn23)c1 | inactive: 1.38% | 
12 | CCOc1ccccc1C1C(C#N)=C(N)Oc2cc(N)ccc21 (stereo unspecified) | inactive: 11.9% | 
13 | Clc1cccc(-n2cc(-c3ccccc3)c3c(N4CCCCC4)ncnc32)c1 | inconclusive: 9.61% | 
14 | O=c1cc(-c2ccc(Cl)cc2)oc(=O)[nH]1 | inconclusive: 0.786% | 
15 | CCN(C(=O)CN1C(=O)COc2ccc(S(=O)(=O)N3CCCCCC3)cc21)c1cccc(C)c1 | inactive: -5.1% | 
16 | O=C1/C(=C/c2cccnc2)SC(=S)N1c1ccc(O)cc1 |  | inconclusive: 22.4 µM [falling, partial curve, poor fit]
17 | CCc1ccc(-c2csc(NC(=O)Oc3ccccc3)n2)cc1 | inconclusive: 23.1% | 
18 | CC1(C)CC(=O)c2c(nn(-c3ccccc3)c2-c2ccncc2)C1 | inconclusive: 15.2% | 
19 | O=C(c1ccc(S(=O)(=O)c2cccc(Cl)c2)c([N+](=O)[O-])c1)N1CCN(Cc2ccccc2)CC1 |  | inconclusive: 29.1 µM [falling, single point]
20 | COc1cccc(C(=O)NCCN2C(=O)S/C(=C/c3cccs3)C2=O)c1OC | inconclusive: -0.586% | 
21 | Cn1c(=O)n(C)c2cc(NC(=O)CCl)ccc21 |  | inconclusive: 15.8 µM [falling, partial curve]

A different layout for some results above.
Row	Compound	activity change, negative = inhibition	Potency
8	O=C(O)c1cccc(NC(=O)c2ccc3c(c2)C(=O)N(CC2CCCO2)C3=O)c1 (stereo unspecified)		inconclusive: 9.2 µM [falling, partial curve, poor fit]
9	Cc1ccnc(NC(=O)CCC2CCCCC2)c1		inconclusive: 25.9 µM [falling, single point]
10	CCOC(=O)C1CCN(C(=O)C2CC(=O)N(c3ccc(C)cc3)C2)CC1 (stereo unspecified)		inconclusive: 6.51 µM [falling, single point]
11	COc1ccc(OC)c(NC(=O)CSc2nnc3ccc(-c4ccccn4)nn23)c1	inactive: 1.38%	
12	CCOc1ccccc1C1C(C#N)=C(N)Oc2cc(N)ccc21 (stereo unspecified)	inactive: 11.9%	
